1 molecule from PMC9489763 can be followed below.

For this test, the target named is T1, GPR110 transmembrane domain (the CTF 567-873 after the stalk peptide 567-576), with LgBiT at its C-terminus (human) (UniProt Q5T601).
T1 sequence: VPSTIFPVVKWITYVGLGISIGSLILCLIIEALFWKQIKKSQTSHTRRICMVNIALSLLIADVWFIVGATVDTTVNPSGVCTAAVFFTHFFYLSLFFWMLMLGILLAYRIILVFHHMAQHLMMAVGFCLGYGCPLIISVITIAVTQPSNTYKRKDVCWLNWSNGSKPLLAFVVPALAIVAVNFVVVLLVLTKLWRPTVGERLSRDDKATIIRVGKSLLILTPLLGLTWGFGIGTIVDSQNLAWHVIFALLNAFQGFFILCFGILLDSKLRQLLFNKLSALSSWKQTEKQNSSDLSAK
The test can be described thus: cryo-EM structure; GPR110 CTF-LgBiT, Gα, Gβ1-HiBiT and Gγ2 co-expressed in Sf9 (NanoBiT tethering); Nb35 added for mini-Gs and mini-Gq, scFv16 for Gi, G12 and G13; complex purified on amylose, cut with TEV, Superdex 200 in 20 mM Hepes pH 7.5, 150 mM NaCl, LMNG/GDN/CHS; about 10 mg/ml on grids; single particle ….

These are yes or no findings as the source states them, for the method shown. Some binding calls cover weakened binding; strength is not graded here.

In the case of TSFSILMSPN [stalk peptide of GPR110 (…, 567-576)], the binding entry is “binds”.
